Earlier results in patent publication US8884020B2, “Indole compounds” (Ironwood Pharmaceuticals, Inc., priority 2006, dated 2014).
At least one compound was matched to its structure with a doubt left.

Chains of the proteins cited; added tags and fusions are not shown. Lines headed by an entry give the natural chain unless they say otherwise; changes in a name come on top.
UniProt P14920: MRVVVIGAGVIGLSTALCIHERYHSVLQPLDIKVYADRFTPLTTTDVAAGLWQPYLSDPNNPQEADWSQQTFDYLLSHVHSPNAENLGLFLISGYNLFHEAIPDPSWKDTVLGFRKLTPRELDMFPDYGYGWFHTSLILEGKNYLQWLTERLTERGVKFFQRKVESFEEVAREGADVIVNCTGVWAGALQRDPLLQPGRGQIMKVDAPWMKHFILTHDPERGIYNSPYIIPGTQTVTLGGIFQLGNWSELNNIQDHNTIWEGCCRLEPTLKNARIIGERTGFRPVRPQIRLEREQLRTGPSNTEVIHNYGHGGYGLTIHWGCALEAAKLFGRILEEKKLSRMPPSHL

Tests used:
DAO = DAO (Homo sapiens, UniProt P14920); settings: Chen et al. 1994
CCR3 = settings: cross-desensitization; Stubbs et al. 2002

In the case of `COc1ccc2c(c1)c(CC(=O)O)c(C)n2C(=O)c1ccc(Cl)cc1` [Indomethacin, 4-chlorobenzoyl-5-methoxy-2-methyl-1H-indole-3-acetic acid], the “inhibition of DAO” value (DAO) is listed as “inhibitor of DAO” and the “expression of CCR3, the receptor for eotaxin” value (CCR3) is listed as “reduces expression of CCR3”.
